No constants are given. Whether binding was seen depends on the method and setting. Some results given as binding are weak or reduced against the parent protein; the word gives no strength. Where a sequence is shown, tags or fusion partners need not be part of it.
Biological target: T1, mouse CD40-His protein (mouse) (UniProt P27512)
T1 sequence: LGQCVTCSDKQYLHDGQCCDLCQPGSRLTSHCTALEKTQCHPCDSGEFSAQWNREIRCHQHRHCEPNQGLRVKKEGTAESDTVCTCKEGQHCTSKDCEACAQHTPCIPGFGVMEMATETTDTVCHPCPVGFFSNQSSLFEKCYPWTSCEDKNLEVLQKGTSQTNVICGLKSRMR
Test: ELISA

Amino acid sequences for entries named in this document (tags omitted). Residues count along the entry.
UniProt P27548, residues 112-260: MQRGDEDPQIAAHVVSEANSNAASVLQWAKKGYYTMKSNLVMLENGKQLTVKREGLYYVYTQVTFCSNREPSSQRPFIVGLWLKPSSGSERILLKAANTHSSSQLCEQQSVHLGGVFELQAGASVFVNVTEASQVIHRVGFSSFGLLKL

binding: binds
Substance: mouse CD40L-hFc protein (human Fc-conjugated) (from UniProt P27548 112-260) (Fc fusion)

Reference: article doi:10.1101/2025.07.30.663779
